The structures given here were assigned with low confidence; some may be wrong.
Target: REV-ERBα LBD (human; residues 281-614 Δ324-422) (Homo sapiens, UniProt P20393, DEL324-422)
Assay: TR-FRET corepressor interaction assay (REV-ERBα LBD, FITC-SMRT peptide)
Format: biochemical
Conditions: read-out: REVERBα agonism (EC50 class, FRET assay), Table 2

Sequences of proteins named here, by UniProt entry; tags and fusion partners are left off. A line that says so, or that is headed by a name, gives the form on record, which may keep a tag or linker. Residues count along the entry.
UniProt P20393, 281-614 with tags or gaps DEL324-422 limits assumed: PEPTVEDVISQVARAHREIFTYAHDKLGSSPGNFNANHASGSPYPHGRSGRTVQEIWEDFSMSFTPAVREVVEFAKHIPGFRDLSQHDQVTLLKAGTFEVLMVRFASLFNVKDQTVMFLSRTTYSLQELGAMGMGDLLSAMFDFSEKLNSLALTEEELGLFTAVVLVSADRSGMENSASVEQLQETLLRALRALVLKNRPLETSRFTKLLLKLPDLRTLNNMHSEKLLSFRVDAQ
UniProt Q9Y618, 2335-2356 partner limits assumed: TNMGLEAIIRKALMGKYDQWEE

| Structure (SMILES) | EC50 [nM] |
| --- | --- |
| CC(C)Cn1cc(C2CCCN(S(=O)(=O)C(C)C)C2)c2ccc(-c3ccccc3)cc21 (centres unmarked) | 500 to 3000 |
| CC(C)Cn1cc(-c2ccc(NS(=O)(=O)C(C)C)cc2)c2ccc(-c3ccccc3)cc21 | > 3000 |
